Results published in PubChem BioAssay AID488837 (National Center for Advancing Translational Sciences (NCATS), 2010).
The campaign covered roughly 330,000 compounds. About 20 (0.006%) were called active. This list was built around the results that the source calls inconclusive (neither active nor inactive); the mix of calls is not that of the screen. The call rests on the fitted dose curve; in most records, active means well fitted inhibition curve with a large enough effect; inconclusive means small, poorly fitted or top-dose-only effect, or effect the other way; inactive means flat fitted curve, though single readings scatter. Potencies of inconclusive entries are doubtful fits and often do not repeat.

Chains of the proteins cited; added tags and fusions are not shown. Lines headed by an entry give the natural chain unless they say otherwise; changes in a name come on top.
UniProt O00167: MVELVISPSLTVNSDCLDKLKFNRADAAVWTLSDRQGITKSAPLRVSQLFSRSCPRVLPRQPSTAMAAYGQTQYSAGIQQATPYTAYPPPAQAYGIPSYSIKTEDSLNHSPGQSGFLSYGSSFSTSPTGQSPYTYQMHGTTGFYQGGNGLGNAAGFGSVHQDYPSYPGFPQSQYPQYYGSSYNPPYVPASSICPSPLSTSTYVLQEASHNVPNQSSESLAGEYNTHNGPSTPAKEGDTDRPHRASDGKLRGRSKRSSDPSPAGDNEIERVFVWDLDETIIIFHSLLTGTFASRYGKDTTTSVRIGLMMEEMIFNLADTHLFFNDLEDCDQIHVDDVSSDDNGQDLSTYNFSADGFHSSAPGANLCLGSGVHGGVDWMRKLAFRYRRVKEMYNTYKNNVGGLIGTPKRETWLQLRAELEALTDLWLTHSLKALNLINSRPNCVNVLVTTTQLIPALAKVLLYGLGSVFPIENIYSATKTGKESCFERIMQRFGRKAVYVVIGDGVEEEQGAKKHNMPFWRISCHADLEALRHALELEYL

Biological target: Protein phosphatase EYA2 (Homo sapiens) (UniProt O00167)
Test: qHTS Assay for Inhibitors of the Phosphatase Activity of Eya2
Conditions: recombinant Eya2, OMFP fluorescence dephosphorylation (OMFP is methylfluorescein phosphate); activity, negative = inhibition: at 76.9 µM (top of the series) unless noted
Source text: The Eya family of proteins are essential co-activators of the Six1 transcription factor. Six1 is a developmental gene that is abnormally re-expressed in a large percentage of breast cancers. This over-expression plays a causal role in the initiation and metastatic development of breast cancers. The Eya family of proteins was also found to contain a unique HAD phosphatase domain with protein tyrosine phosphatase activity which can potentially play a role in Six1-mediated breast tumorigenesis. […] We have developed and optimized a 1536 well fluorescence-based HTS assay targeting the phosphatase activity of Eya2. Inhibitors found against Eya2 could serve as potential therapeutic tools to inhibit Six1-mediated breast tumorigenesis and to increase the efficiency of radiation and certain chemo therapy. These inhibitors could also be used as chemical probes to study the function of Eya2's phosphatase activity and its role in Six1-mediated breast tumorigenesis.
The Eya2 enzyme was kindly provided by the laboratory of Dr. Rui Zhao. The 3-O-methyl-fluorescein phosphate (OMFP) substrate and all buffer reagents were purchased from Sigma Aldrich. qHTS Assay Setup: 1. Buffer- 50 mM HEPES pH 7.5, 50 mM NaCl, 5 uM MgCl2, 0.05% BSA, 1 mM DTT. 2. OMFP Stock- 10 mM solution prepared in 100% DMSO and stored in single use aliquots at -20C. Assay Procedure- 1. Dispense 1.5 ul per well of Eya2 at 0.2 uM in black medium binding 1536 well Greiner plate 2. Transfer 23 nl of compound and control compound (EGTA) to plate 3. Incubate at ambient for 10 minutes 4. Dispense 1.5 ul per well of OMFP at 50 uM 5. Incubate at ambient for 10 minutes 6. Read on ViewLux using Excitation = 485 nm, Emission = 525 nm
On the % scale 0 is the no-effect control and ±100 the full control effect; potency means the concentration at half of the fitted maximal effect.

Compound | Potency | activity, negative = inhibition
CC(=O)NC(CC(=O)OCC(=O)Nc1ccc2c(c1)OCO2)c1ccccc1 (stereo unspecified) | inconclusive: 31.6 µM [inhibitor, partial curve] | 
CN1CCN(c2nc(C#N)cc(-c3ccccc3)n2)CC1 | inconclusive: 25.1 µM [inhibitor, single point] | 
Nc1ccc(-c2nc(-c3ccccc3)nc3ccccc23)cc1 | inconclusive: 112 µM [inhibitor, partial curve, poor fit] | 
Cc1ccccc1N1C(=O)c2ccccc2C1O (stereo unspecified) | inconclusive: 89.1 µM [inhibitor, single point] | 
Cc1ccc(Cn2cccc(NC(=O)NCc3ccccc3)c2=O)cc1 |  | inactive: 10.6%
CCc1ccc(NC(=S)NCc2ccccc2)cc1 |  | inactive: -2.27%
CCOC(=O)c1ccc(NC(=O)Cn2c(=O)oc3ccccc32)cc1 | inconclusive: 200 µM [inhibitor, single point] | 
OC(CN1CCN(c2ccccn2)CC1)Cn1c2ccccc2c2ccccc21 (stereo unspecified) |  | inactive: -4.36%
CCNS(=O)(=O)c1ccc(NC(=O)Cn2nc(C(F)(F)F)cc2C)cc1 |  | inactive: 15.6%
COc1ccc(C2=NN(C(=O)c3ccccc3)C(c3ccc(OC)c(OC)c3)C2)cc1OC (stereo unspecified) | inconclusive: 22.4 µM [inhibitor, single point] | 
CCOC(=O)[C@@H]1[C@H]2COc3cc(OC)ccc3[C@@H]2N2C(=O)N(c3cccc(Cl)c3)C(=O)[C@@]12C |  | inactive: 1.99%
O=C1CC[C@@H](CN(Cc2ccccn2)Cc2nc(Cc3ccccc3)no2)N1 | inconclusive: 15.8 µM [inhibitor, single point] | 
Cc1cc(C(c2ccc(C)o2)c2ccc(C)o2)c(O)c([N+](=O)[O-])c1 |  | inactive: -9.01%
O=[N+]([O-])c1ccc(N2CCN(c3ccc(F)cc3)CC2)cn1 | inconclusive: 17.8 µM [inhibitor, single point] | 
Cc1csc(NC(=O)c2cccn2C)n1 |  | inactive: -0.936%
CCCN1C=CC(=C/C=C(\C#N)C(=O)OCC)C=C1 |  | inconclusive: 54.6% [activator]
CCc1ccc(/C=C/C(=O)C2C(=O)c3ccccc3C2=O)cc1 |  | inactive: 10.4%
O=C(NNC(=O)c1cc2cc(Br)ccc2oc1=O)c1ccc(O)cc1O | inconclusive: 100 µM [inhibitor, partial curve, poor fit] | 
Cc1ccc(C(=O)C(OC(=O)c2c(C)cc(=O)oc2C)c2ccccc2)cc1 (stereo unspecified) | inconclusive: 100 µM [inhibitor, single point] | 
Oc1c(C(c2ccccn2)N2CCC(Cc3ccccc3)CC2)cc(Cl)c2cccnc12 (stereo unspecified) |  | inactive: 16.5%
Cn1ccnc1C(OC(=O)c1ccccc1)C(F)(F)F (stereo unspecified) | inconclusive: 100 µM [inhibitor, single point] | 

Filtered by structure: those above with a Cl atom
Compound | Potency | activity, negative = inhibition
CCOC(=O)[C@@H]1[C@H]2COc3cc(OC)ccc3[C@@H]2N2C(=O)N(c3cccc(Cl)c3)C(=O)[C@@]12C |  | inactive: 1.99%
Oc1c(C(c2ccccn2)N2CCC(Cc3ccccc3)CC2)cc(Cl)c2cccnc12 (stereo unspecified) |  | inactive: 16.5%
